Structures can show the parent of a compound that is named as a salt. The list shows a part of the results. The numbers are fractions of the control, whatever unit the source prints. Most entries show no effect beyond the scatter of the controls.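 A lentiviral reporter stably expressed in MIN6 mouse insulinoma beta cells uses Pdx1 and Ins1 promoters to drive separate nucleus-targeted fluorescent proteins; automated imaging with Hoechst nuclear stain counted cells. Possible hits were drugs shifting Ins1 promoter signal more than two median absolute deviations from DMSO controls, with Pdx1 activity roughly normal.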

Consider 72 compounds from the supplement of paper PMC4807443.

In this test the test system is MIN6. Briefly: % Pdx1+ Ins1-low (RFP-only, immature) cells relative to DMSO control (fold of DMSO control); higher = more immature Pdx1+/Ins1-low cells. The settings on record: 8.5 µM; 48 h; glucose 5 mM.
Regarding `CCOC(=O)[N-]c1c[n+](N2CCOCC2)no1` [Molsidomine], the “% Pdx1+ Ins1-low” value came out at 1.78.

`CC(C)(C)NCC(O)c1cc(O)cc(O)c1` (configuration not stated) [Terbutaline hemisulfate]: the “% Pdx1+ Ins1-low” value is 1.28.

`NS(=O)(=O)c1cc2c(cc1Cl)NC(CC1CCCC1)NS2(=O)=O` (configuration not stated) [Cyclopenthiazide]: the “% Pdx1+ Ins1-low” value turned out to be 0.665.

With `C#C[C@]1(O)CC[C@H]2[C@@H]3CCC4=C(CCC(=O)C4)[C@H]3CC[C@@]21C` [Norethynodrel], the “% Pdx1+ Ins1-low” value was 0.646.

Turning to `CC(C(=O)O)c1ccc(C(=O)c2cccs2)cc1` (configuration not stated) [Suprofen], the “% Pdx1+ Ins1-low” value was 0.908.

As for `CN1CCC[C@@H]1CCO[C@](C)(c1ccccc1)c1ccc(Cl)cc1` [Clemastine fumarate], the “% Pdx1+ Ins1-low” value came to 0.925.

On to `CCOc1ccc(NC(C)=O)cc1` [Phenacetin], for which the “% Pdx1+ Ins1-low” value stood at 0.611.

In the case of `CCCCC[C@H](O)/C=C/[C@H]1[C@H](O)CC(=O)[C@@H]1CCCCCCC(=O)O` [Alprostadil], the “% Pdx1+ Ins1-low” value turned out to be 0.859.

Regarding `CC(C)(C)NC[C@H](O)COc1ccccc1C1CCCC1` [Penbutolol sulfate], the “% Pdx1+ Ins1-low” value came out at 0.548.

Take `COc1ccc(C(=O)c2ccccc2O)c(O)c1` [Dioxybenzone]: the “% Pdx1+ Ins1-low” value worked out at 1.05.

As for `O=c1c(O)c(-c2ccc(O)c(O)c2)oc2cc(O)cc(O)c12` [Quercetine dihydrate], the “% Pdx1+ Ins1-low” value is 0.91.

Turning to `Nc1ccc(S(=O)(=O)Nc2ccccn2)cc1` [Sulfapyridine], the “% Pdx1+ Ins1-low” value was determined as 1.26.

Consider `CO[C@H]1C[C@H](O[C@H]2[C@H](C)[C@@H](O[C@@H]3O[C@H](C)C[C@H](N(C)C)[C@H]3O)[C@@H](C)C[C@@]3(CO3)C(=O)[C@H](C)[C@@H](O)[C@@H](C)[C@@H](C)OC(=O)[C@@H]2C)O[C@@H](C)[C@@H]1O` [Oleandomycin phosphate], for which the “% Pdx1+ Ins1-low” value amounted to 1.35.

With `CN(C)CCCN1c2ccccc2Sc2ccc(Cl)cc21` [Chlorpromazine hydrochloride], the “% Pdx1+ Ins1-low” value stood at 0.737.

Turning to `Cc1n[nH]c(=O)[nH]c1=O` [Azathymine, 6], the “% Pdx1+ Ins1-low” value turned out to be 0.613.

For the compound `CC(=O)[C@H]1CC[C@H]2[C@@H]3CC=C4C[C@@H](O)CC[C@]4(C)[C@H]3CC[C@]12C` [Pregnenolone], the “% Pdx1+ Ins1-low” value was found to be 0.628.

As for `COc1ccc(CC2c3cc(OC)c(OC)cc3CC[N+]2(C)CCC(=O)OCCCCCOC(=O)CC[N+]2(C)CCc3cc(OC)c(OC)cc3C2Cc2ccc(OC)c(OC)c2)cc1OC` (configuration not stated) [Atracurium besylate], the “% Pdx1+ Ins1-low” value stood at 1.2.

For the compound `CC(COc1ccccc1)NC(C)C(O)c1ccc(O)cc1` (configuration not stated) [Isoxsuprine hydrochloride], the “% Pdx1+ Ins1-low” value was found to be 0.685.

Regarding `CC(C)(C)c1ccc(C(O)CCCN2CCC(C(O)(c3ccccc3)c3ccccc3)CC2)cc1` (configuration not stated) [Terfenadine], the “% Pdx1+ Ins1-low” value stood at 1.3.

On to `CC[C@@H](C(=O)[C@@H](C)[C@@H](O)[C@H](C)CCc1ccc(C)c(O)c1C(=O)O)[C@H]1O[C@](CC)([C@H]2CC[C@](O)(CC)[C@H](C)O2)C[C@@H]1C` [Lasalocid sodium salt], for which the “% Pdx1+ Ins1-low” value was found to be 0.591.

Take `CCOC(=O)NNc1nncc2ccccc12` [Todralazine hydrochloride]: the “% Pdx1+ Ins1-low” value was found to be 0.942.

As for `CCCCN1CCCCC1C(=O)Nc1c(C)cccc1C` (configuration not stated) [Bupivacaine hydrochloride], the “% Pdx1+ Ins1-low” value was 0.723.

For the compound `COc1cc(-c2ccc(=O)[nH]n2)ccc1OC(F)F` [Zardaverine], the “% Pdx1+ Ins1-low” value is 0.561.

Consider `O=c1cc(-c2ccc(O)cc2)oc2c([C@@H]3O[C@H](CO)[C@@H](O)[C@H](O)[C@H]3O)c(O)cc(O)c12` [Vitexin], for which the “% Pdx1+ Ins1-low” value came out at 1.48.

With `CCCCNc1c(C(=O)OCC)c(C)nc2c1cnn2CC` [Tracazolate hydrochloride], the “% Pdx1+ Ins1-low” value turned out to be 0.738.

Regarding `COc1cc(NC(C)CCCN)c2ncccc2c1` (configuration not stated) [Primaquine diphosphate], the “% Pdx1+ Ins1-low” value turned out to be 0.724.

On to `CCCCC1(COC(=O)CCC(=O)O)C(=O)N(c2ccccc2)N(c2ccccc2)C1=O` [Suxibuzone], for which the “% Pdx1+ Ins1-low” value is 1.07.

As to `CN(C)[C@@H]1C(O)=C(C(N)=O)C(=O)[C@@]2(O)C(O)=C3C(=O)c4c(O)cccc4[C@@](C)(O)[C@H]3[C@H](O)[C@@H]12` [Oxytetracycline dihydrate], the “% Pdx1+ Ins1-low” value stood at 1.12.

Consider `NC(N)=Nc1nc(CSCC/C(N)=N/S(N)(=O)=O)cs1` [Famotidine], for which the “% Pdx1+ Ins1-low” value was 0.767.

`Cc1cc(-c2ccccc2)nnc1NCCN1CCOCC1` [Minaprine dihydrochloride]: the “% Pdx1+ Ins1-low” value came to 0.672.

For `CSc1ccc2c(c1)N(CCC1CCCCN1C)c1ccccc1S2` (configuration not stated) [Thioridazine hydrochloride], the “% Pdx1+ Ins1-low” value is 0.86.

On to `CC/C(=C(/CC)c1ccc(O)cc1)c1ccc(O)cc1` [Diethylstilbestrol], for which the “% Pdx1+ Ins1-low” value stood at 0.935.

For the compound `CC1=C(/C=C/C(C)=C/C=C/C(C)=C\C(=O)O)C(C)(C)CCC1` [Isotretinoin], the “% Pdx1+ Ins1-low” value turned out to be 1.

Consider `CN(Cc1cnc2nc(N)nc(N)c2n1)c1ccc(C(=O)N[C@@H](CCC(=O)O)C(=O)O)cc1` [Methotrexate], for which the “% Pdx1+ Ins1-low” value came to 1.23.

Consider `CN(Cc1cnc2nc(N)nc(N)c2n1)c1ccc(C(=O)N[C@@H](CCC(=O)O)C(=O)O)cc1` (racemic) [Amethopterin (R,S)], for which the “% Pdx1+ Ins1-low” value was 0.634.

Turning to `CNC(C)CCC=C(C)C` (configuration not stated) [Isometheptene mucate], the “% Pdx1+ Ins1-low” value came out at 0.976.

Consider `O=C(COc1ccc(Cl)cc1)N1CCN(Cc2ccc3c(c2)OCO3)CC1` [Fipexide hydrochloride], for which the “% Pdx1+ Ins1-low” value is 0.934.

On to `CCN(CC)CCNc1ccc(CO)c2sc3ccccc3c(=O)c12` [Hycanthone], for which the “% Pdx1+ Ins1-low” value was found to be 1.35.

Take `CN(C)c1ccc(O)c2c1C[C@H]1C[C@H]3[C@H](N(C)C)C(O)=C(C(N)=O)C(=O)[C@@]3(O)C(O)=C1C2=O` [Minocycline hydrochloride]: the “% Pdx1+ Ins1-low” value is 0.827.

In the case of `Cc1ccsc1/C=C/C1=NCCCN1C` [Morantel tartrate], the “% Pdx1+ Ins1-low” value was determined as 0.947.

With `Cc1ccc(S(=O)(=O)NC(=O)NN2CCCCCC2)cc1` [Tolazamide], the “% Pdx1+ Ins1-low” value came out at 1.28.

As for `C[C@]12CC[C@@H]3c4ccc(OS(=O)(=O)O)cc4CC[C@H]3[C@@H]1CCC2=O` [Estropipate], the “% Pdx1+ Ins1-low” value is 0.707.

Take `OC(CCCN1CCCCC1)(c1ccccc1)c1ccccc1` [Diphenidol hydrochloride]: the “% Pdx1+ Ins1-low” value is 0.836.

Regarding `CCN(CC)CCOC(=O)C(c1ccccc1)c1ccccc1` [Adiphenine hydrochloride], the “% Pdx1+ Ins1-low” value came out at 0.986.

`CCOC(=O)c1ccc(N)cc1` [Benzocaine]: the “% Pdx1+ Ins1-low” value amounted to 0.674.

In the case of `C=CCSCC1Nc2cc(Cl)c(S(N)(=O)=O)cc2S(=O)(=O)N1` (configuration not stated) [Althiazide], the “% Pdx1+ Ins1-low” value was 0.488.

As for `CC(=O)N(CC(O)CN(C(C)=O)c1c(I)c(C(=O)NCC(O)CO)c(I)c(C(=O)NCC(O)CO)c1I)c1c(I)c(C(=O)NCC(O)CO)c(I)c(C(=O)NCC(O)CO)c1I` (configuration not stated) [Iodixanol], the “% Pdx1+ Ins1-low” value was determined as 0.63.

As for `CC(C(=O)O)c1ccc(C(=O)c2ccccc2)s1` (configuration not stated) [Tiaprofenic acid], the “% Pdx1+ Ins1-low” value turned out to be 0.609.

Regarding `c1ccc(CN(CC2=NCCN2)c2ccccc2)cc1` [Antazoline hydrochloride], the “% Pdx1+ Ins1-low” value came to 0.46.

Consider `O=C(/C=C/c1ccc(O)c(O)c1)O[C@@H]1C[C@](O)(C(=O)O)C[C@@H](O)[C@H]1O` [Chlorogenic acid], for which the “% Pdx1+ Ins1-low” value is 0.892.

As to `C=CCOC(Cn1ccnc1)c1ccc(Cl)cc1Cl` (configuration not stated) [Enilconazole], the “% Pdx1+ Ins1-low” value worked out at 0.995.

With `CC1(C)[C@@H](OC(=O)CCC(=O)O)CC[C@]2(C)[C@H]3C(=O)C=C4[C@@H]5C[C@@](C)(C(=O)O)CC[C@]5(C)CC[C@@]4(C)[C@]3(C)CC[C@@H]12` [Carbenoxolone disodium salt], the “% Pdx1+ Ins1-low” value turned out to be 0.708.

Consider `CC(CN(C)C)CN1c2ccccc2Sc2ccccc21` (configuration not stated) [Trimeprazine tartrate], for which the “% Pdx1+ Ins1-low” value is 0.71.

For `C#C[C@]1(O)CC[C@H]2[C@@H]3CCC4=CC(=O)CC[C@@H]4[C@H]3CC[C@@]21CC` [Norgestrel-(-)-D], the “% Pdx1+ Ins1-low” value amounted to 1.2.

Turning to `N=C(N)NCCN1CCCCCCC1` [Guanethidine sulfate], the “% Pdx1+ Ins1-low” value was determined as 0.778.

Take `CCCOc1ccc(C(=O)OCCN(CC)CC)cc1N` [Proparacaine hydrochloride]: the “% Pdx1+ Ins1-low” value was 1.99.

With `CC(=O)OCC(=O)[C@@]1(OC(C)=O)[C@@H](C)C[C@H]2[C@@H]3C[C@H](F)C4=CC(=O)C=C[C@]4(C)[C@@]3(F)[C@@H](O)C[C@@]21C` [Diflorasone Diacetate], the “% Pdx1+ Ins1-low” value was found to be 1.49.

In the case of `CC[C@@H](CO)NCCN[C@@H](CC)CO` [Ethambutol dihydrochloride], the “% Pdx1+ Ins1-low” value came to 1.02.

As for `Cc1cc(N)c2ccccc2[n+]1CCCCCCCCCC[n+]1c(C)cc(N)c2ccccc21` [Dequalinium dichloride], the “% Pdx1+ Ins1-low” value is 1.5.

As to `COc1ccccc1OCC(O)COC(N)=O` (configuration not stated) [Methocarbamol], the “% Pdx1+ Ins1-low” value is 1.06.

Turning to `CCOC(=O)[C@@](C)(N)Cc1ccc(O)c(O)c1` [Methyldopate hydrochloride], the “% Pdx1+ Ins1-low” value was found to be 1.32.

As to `O=C(c1ccccc1)c1ccc2n1CCC2C(=O)O` (configuration not stated) [Ketorolac tromethamine], the “% Pdx1+ Ins1-low” value stood at 0.918.

Take `c1ccc(CNc2ncnc3nc[nH]c23)cc1` [Aminopurine, 6-benzyl]: the “% Pdx1+ Ins1-low” value stood at 1.19.

Consider `CCN[C@@H]1C[C@H](N)[C@@H](O[C@H]2OC(CN)=CC[C@H]2N)[C@H](O)[C@H]1O[C@H]1OC[C@](C)(O)[C@H](NC)[C@H]1O` [Netilmicin sulfate], for which the “% Pdx1+ Ins1-low” value was 0.656.

Regarding `CN1Cc2c(N)cccc2C(c2ccccc2)C1` (configuration not stated) [Nomifensine maleate], the “% Pdx1+ Ins1-low” value is 0.701.

For the compound `Cc1c(N)c(=O)n(-c2ccccc2)n1C` [Ampyrone], the “% Pdx1+ Ins1-low” value stood at 0.835.

For `C=CCOc1ccccc1OCC(O)CNC(C)C` (configuration not stated) [Oxprenolol hydrochloride], the “% Pdx1+ Ins1-low” value amounted to 0.761.

With `NC[C@H]1O[C@H](O[C@H]2[C@H](O)[C@@H](O[C@H]3O[C@H](CO)[C@@H](O)[C@H](N)[C@H]3O)[C@H](N)C[C@@H]2N)[C@H](N)C[C@@H]1O` [Tobramycin], the “% Pdx1+ Ins1-low” value was 1.3.

With `O=c1c(O)c(-c2ccc(O)cc2)oc2cc(O)cc(O)c12` [Kaempferol], the “% Pdx1+ Ins1-low” value was 1.84.

As to `COc1cc2nc(N3CCN(C(=O)C4COc5ccccc5O4)CC3)nc(N)c2cc1OC` (configuration not stated) [Doxazosin mesylate], the “% Pdx1+ Ins1-low” value stood at 1.21.

As for `CCCCC1C(=O)N(c2ccccc2)N(c2ccc(O)cc2)C1=O` (configuration not stated) [Oxyphenbutazone], the “% Pdx1+ Ins1-low” value came out at 0.683.

For the compound `N[C@H]1CONC1=O` [(S)-(-)-Cycloserine], the “% Pdx1+ Ins1-low” value came out at 0.435.
